Numbering of substitutions follows the chain as printed. These are yes or no findings as the source states them, for the method shown. In cells and extracts the contact can be indirect. For part of these data: A result given as binding can be weak or reduced; the word gives no strength. Sequences can lack the tags named with a protein.
Tests used:
[1] = molecular target: T1, CERKL-C125W-Flag (pathological point mutant of CERKLa) (human) (UniProt Q49MI3); assay: co-IP; Flag immunoprecipitation (M2 Flag beads, 1 h, 4°C; lysis buffer 1% Triton X-100, 150 mM NaCl, 20 mM Tris pH 7.4) from lysates of transfected HEK 293T cells, Western blot of endogenous partners; in some panels cells treated with cycloheximide or colchicine, and lysates treated or not with RNase A (100 µg/mL) at 150, 450 or 600 mM NaCl
T1 sequence: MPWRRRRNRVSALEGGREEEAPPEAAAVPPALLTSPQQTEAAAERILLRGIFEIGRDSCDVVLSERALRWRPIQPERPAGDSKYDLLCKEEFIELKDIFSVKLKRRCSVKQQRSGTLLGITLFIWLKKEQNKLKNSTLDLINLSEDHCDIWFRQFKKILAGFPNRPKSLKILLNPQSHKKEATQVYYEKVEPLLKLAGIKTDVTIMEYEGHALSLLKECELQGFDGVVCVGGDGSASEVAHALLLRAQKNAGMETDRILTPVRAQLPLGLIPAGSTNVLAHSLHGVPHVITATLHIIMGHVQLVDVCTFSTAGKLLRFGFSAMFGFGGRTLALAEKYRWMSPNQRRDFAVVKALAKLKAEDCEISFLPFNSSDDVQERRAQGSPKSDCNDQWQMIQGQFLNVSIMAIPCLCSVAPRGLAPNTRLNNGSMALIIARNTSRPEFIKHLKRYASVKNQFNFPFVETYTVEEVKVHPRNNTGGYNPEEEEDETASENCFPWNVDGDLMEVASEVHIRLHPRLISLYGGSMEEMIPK

[2] = molecular target: T2, CERKL-Flag (CERKLa, full length CERKL isoform of 532 amino acids, wild type) (human) (UniProt Q49MI3); assay: as above
T2 sequence: T1 sequence with W125C

[3] = molecular target: T2, CERKL-Flag (CERKLa, full length CERKL isoform of 532 amino acids, wild type) (human); assay: co-IP; Flag immunoprecipitation of CERKL-Flag in the presence of 1 µg/ml colchicine (disrupts microtubules), Western blot of alpha and beta-tubulin

| binding [1] | binding [2] | Substance | binding [3] |
| --- | --- | --- | --- |
| binds |  | HSP70 (human (endogenous in HEK-293T)) |  |
| binds |  | PABP (poly(A) binding protein) (human (endogenous in HEK-293T)) |  |
|  | binds | alpha-tubulin (human (endogenous in HEK-293T)) | no binding (only with 1 µg/ml colchicine) |
|  | binds | beta-tubulin (human (endogenous in HEK-293T)) | no binding (only with 1 µg/ml colchicine) |
